In publication PMC12090772:
Results are given in words; binding and its absence hold for the method and conditions named. Binding seen in cells or lysates may run through a third protein. Some results given as binding are weak or reduced against the parent protein; the word gives no strength.

Sequences of proteins named here, by UniProt entry; tags and fusion partners are left off. A change or cut given only in a name is not applied to a line headed by its entry. A line that says so, or that is headed by a name, gives the form on record, which may keep a tag or linker.
Human TASOR, Flag-tagged (Q9UK61, form named): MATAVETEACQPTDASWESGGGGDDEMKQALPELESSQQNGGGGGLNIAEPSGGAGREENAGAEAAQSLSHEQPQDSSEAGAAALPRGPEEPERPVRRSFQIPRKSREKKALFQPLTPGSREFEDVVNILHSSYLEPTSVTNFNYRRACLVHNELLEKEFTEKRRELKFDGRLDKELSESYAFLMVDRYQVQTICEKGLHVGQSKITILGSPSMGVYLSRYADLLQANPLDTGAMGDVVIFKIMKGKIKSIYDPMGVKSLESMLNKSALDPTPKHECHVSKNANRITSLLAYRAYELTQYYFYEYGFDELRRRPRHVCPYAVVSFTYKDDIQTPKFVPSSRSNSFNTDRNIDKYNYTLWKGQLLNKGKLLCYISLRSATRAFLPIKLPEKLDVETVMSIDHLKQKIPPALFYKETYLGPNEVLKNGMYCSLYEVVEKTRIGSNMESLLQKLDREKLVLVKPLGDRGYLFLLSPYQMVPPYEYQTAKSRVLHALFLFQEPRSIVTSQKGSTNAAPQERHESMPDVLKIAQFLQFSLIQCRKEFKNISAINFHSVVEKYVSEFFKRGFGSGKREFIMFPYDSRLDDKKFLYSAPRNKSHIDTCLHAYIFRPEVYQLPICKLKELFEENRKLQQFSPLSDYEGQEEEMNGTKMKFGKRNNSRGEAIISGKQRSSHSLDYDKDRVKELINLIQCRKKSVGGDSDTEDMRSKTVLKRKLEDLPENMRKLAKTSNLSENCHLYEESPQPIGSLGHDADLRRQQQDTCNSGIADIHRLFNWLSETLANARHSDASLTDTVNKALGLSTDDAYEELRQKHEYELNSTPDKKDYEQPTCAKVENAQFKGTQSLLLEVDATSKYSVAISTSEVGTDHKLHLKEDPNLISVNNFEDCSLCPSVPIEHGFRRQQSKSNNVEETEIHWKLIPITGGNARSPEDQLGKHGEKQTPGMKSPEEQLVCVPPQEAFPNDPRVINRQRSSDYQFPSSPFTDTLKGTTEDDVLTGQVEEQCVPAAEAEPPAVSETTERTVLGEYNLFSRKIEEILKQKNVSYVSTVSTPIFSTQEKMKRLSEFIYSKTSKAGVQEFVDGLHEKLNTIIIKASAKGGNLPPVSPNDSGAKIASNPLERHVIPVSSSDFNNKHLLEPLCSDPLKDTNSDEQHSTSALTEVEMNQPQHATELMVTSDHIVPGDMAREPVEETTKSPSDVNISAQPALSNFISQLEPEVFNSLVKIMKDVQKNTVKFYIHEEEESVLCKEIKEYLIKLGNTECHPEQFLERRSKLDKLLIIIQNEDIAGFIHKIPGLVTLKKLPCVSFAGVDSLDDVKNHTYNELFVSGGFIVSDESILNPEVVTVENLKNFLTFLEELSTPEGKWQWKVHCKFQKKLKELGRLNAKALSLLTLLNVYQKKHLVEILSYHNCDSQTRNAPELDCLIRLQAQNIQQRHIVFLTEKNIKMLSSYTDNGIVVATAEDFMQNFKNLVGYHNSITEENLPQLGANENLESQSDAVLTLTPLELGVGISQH
UniProt Q9Y4B6: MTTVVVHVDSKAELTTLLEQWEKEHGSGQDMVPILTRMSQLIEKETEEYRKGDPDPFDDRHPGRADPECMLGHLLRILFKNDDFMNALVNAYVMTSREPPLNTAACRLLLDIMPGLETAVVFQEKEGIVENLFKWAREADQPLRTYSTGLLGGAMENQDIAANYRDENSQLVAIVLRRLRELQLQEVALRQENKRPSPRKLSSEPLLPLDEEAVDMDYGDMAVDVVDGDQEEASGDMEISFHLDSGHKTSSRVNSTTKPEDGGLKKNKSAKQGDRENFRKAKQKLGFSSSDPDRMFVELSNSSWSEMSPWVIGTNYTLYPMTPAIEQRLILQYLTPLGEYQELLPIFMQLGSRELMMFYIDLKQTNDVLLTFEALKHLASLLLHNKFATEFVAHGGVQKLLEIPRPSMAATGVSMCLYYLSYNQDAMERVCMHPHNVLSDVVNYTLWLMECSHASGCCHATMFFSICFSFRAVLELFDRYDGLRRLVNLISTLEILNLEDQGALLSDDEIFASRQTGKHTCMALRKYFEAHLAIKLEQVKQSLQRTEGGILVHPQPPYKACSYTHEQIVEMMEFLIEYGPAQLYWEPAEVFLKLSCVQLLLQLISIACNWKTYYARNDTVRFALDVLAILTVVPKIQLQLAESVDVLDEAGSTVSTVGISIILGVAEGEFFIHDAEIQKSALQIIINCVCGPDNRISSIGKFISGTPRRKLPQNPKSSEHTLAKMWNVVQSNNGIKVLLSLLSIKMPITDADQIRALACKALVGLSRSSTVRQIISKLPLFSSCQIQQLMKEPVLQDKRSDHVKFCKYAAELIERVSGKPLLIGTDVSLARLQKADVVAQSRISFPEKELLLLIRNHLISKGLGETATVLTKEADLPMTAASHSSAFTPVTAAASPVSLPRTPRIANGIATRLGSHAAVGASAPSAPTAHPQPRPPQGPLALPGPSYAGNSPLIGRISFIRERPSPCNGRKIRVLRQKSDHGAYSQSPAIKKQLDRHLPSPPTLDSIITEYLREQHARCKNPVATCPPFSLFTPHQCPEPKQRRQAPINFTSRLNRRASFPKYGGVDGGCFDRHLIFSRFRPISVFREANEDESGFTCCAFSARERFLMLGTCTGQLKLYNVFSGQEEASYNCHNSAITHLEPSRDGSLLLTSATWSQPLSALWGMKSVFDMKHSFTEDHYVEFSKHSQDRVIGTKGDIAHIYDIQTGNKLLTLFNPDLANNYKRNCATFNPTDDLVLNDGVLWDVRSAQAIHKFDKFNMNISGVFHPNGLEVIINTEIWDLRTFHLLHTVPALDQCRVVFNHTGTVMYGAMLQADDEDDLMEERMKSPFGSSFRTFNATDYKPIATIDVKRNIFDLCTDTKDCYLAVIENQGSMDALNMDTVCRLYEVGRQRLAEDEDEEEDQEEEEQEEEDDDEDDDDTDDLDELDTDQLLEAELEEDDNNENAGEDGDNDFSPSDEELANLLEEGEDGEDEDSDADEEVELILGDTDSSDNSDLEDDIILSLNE

B1: Vpx HIV-2 Gh (protein, UniProt P18045 1-112)
chain: MTDPRERVPPGNSGEETIGEAFEWLDRTIEALNREAVNHLPRELIFQVWQRSWRYWHDDQGMSPSYTKYRYLCLMQKAVFIHFKRGCTCLGGGHGPGGWRSGPPPPPPPGLV

What was measured:
[1] = target: Vpr SIVagm.gri677 (SIVagm.Gri (strain gri677)) (UniProt Q02842); experiment: co-IP; HA-Vpr constructs expressed in HeLa cells (with TASOR-Flag co-transfected where TASOR was looked for); anti-HA affinity gel beads, 4°C overnight, RIPA buffer; Western blot
[2] = target: Human TASOR, Flag-tagged (human) (UniProt Q9UK61); experiment: co-IP; HA-Vpr or HA-Vpx overexpressed in OMK cells with human or owl monkey Flag-TASOR; anti-Flag immunoprecipitation; Western blot

Molecule	binding [1]	binding [2]
DCAF1 (human, endogenous in HeLa cells) (from UniProt Q9Y4B6 1-1507)	binds	
B1		binds
